Among the data in paper doi:10.1101/2021.03.26.437243 are binding values, retold here.

Sequences of proteins named here, by UniProt entry; tags and fusion partners are left off.
UniProt Q8TEW0: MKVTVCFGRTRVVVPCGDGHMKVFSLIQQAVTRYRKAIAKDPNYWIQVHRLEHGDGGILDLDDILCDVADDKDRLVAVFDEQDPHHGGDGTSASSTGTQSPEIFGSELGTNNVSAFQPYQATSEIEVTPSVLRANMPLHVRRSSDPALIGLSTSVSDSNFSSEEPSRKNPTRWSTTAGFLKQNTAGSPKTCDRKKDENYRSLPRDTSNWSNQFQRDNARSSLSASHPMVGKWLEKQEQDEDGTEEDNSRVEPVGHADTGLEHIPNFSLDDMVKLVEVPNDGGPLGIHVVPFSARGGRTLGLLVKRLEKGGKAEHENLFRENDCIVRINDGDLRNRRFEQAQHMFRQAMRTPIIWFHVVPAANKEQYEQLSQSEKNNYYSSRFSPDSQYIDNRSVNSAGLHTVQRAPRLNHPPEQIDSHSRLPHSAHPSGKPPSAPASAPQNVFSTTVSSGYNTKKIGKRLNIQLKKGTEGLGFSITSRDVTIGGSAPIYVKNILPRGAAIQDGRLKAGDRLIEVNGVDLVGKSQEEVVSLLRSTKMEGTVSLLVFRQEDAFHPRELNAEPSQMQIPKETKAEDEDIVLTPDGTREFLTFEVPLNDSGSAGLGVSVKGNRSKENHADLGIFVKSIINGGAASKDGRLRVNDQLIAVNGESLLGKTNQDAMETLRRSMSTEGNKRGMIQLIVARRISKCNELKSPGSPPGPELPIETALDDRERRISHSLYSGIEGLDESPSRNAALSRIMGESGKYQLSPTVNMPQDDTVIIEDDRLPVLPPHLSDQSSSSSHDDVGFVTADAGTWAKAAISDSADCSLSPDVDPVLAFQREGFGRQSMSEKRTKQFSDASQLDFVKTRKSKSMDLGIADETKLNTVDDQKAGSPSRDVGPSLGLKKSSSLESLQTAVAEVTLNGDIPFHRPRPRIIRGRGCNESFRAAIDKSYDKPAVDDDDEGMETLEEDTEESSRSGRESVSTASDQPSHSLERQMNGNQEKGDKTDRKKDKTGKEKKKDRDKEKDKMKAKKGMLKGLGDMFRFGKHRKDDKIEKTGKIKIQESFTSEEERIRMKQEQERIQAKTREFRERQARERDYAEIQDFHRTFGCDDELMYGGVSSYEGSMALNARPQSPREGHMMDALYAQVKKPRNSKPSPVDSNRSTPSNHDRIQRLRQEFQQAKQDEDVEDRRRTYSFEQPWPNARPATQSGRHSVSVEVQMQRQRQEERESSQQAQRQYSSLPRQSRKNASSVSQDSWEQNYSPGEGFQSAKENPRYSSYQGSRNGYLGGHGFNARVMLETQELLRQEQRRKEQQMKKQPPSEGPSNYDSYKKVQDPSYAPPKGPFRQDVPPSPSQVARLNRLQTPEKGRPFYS
UniProt P60953: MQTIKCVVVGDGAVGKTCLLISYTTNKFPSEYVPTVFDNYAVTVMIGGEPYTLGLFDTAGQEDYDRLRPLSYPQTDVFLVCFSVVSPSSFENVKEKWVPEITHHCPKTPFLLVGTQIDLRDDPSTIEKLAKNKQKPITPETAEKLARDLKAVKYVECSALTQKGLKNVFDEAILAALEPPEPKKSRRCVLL

No constants are given. Whether binding was seen depends on the method and setting. In cells and extracts the contact can be indirect. Some binding calls cover weakened binding; strength is not graded here. Where a sequence is shown, tags or fusion partners need not be part of it.

The target of this assay is T1, GST-tagged TIPE2 (full-length murine TIPE2) (murine) (UniProt Q9D8Y7).
T1 sequence: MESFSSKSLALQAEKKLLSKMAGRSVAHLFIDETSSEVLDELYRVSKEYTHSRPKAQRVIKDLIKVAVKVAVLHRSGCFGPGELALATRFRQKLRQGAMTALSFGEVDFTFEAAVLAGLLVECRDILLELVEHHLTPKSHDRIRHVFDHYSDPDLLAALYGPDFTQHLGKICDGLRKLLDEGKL
The assay is described as follows: pull-down.

With Par3 (from UniProt Q8TEW0 1-1356), the binding entry was “binds”.
For “Myc-tagged Cdc42 (wild type) (from UniProt P60953 1-191)”, the binding entry is “binds”.
